The list does not hold the whole screen: it gathers tests that were run many times, whatever their T/C, doses with no T/C, and many T/C values between a quarter and a half above the control. Other doses and runs of a compound stand elsewhere. T/C: endpoint of the treated group in % of that of the vehicle group. Some entries give survivors of the animals treated and no T/C: the source holds a T/C of zero for them, seemingly a mark for toxic or unscored doses. For some of these results: Counts of survivors are from the toxicity check (mostly the fifth day) where no day follows; animals may have died later. Schedule codes are those of the source, read here as Q, the interval in days (D) or hours (H), X, the number of doses. Some doses were run more than once; the results are listed from low to high. Where survival is the endpoint, this PubChem deposit counts one and a half times the control or more as active, and values a quarter to a half above the control carry no call in these data; other NCI protocols may use other cut-offs. Some T/C values are followed by the survivors on the day toxicity was checked, most often the fifth; where none is given, no animal had died by that day. Counts like (3×) count equal records among those shown.
Assays:
[1] = system: BDF1 mice, L1210 leukemia sc, survival T/C; assay: NCI In Vivo Anticancer Drug Screen. Data for tumor model L1210 Leukemia (subcutaneous) in B6D2F1 (BDF1) mice; settings: T/C endpoint: median survival time, vehicle: water, higher T/C = longer survival
How it was run: (§1)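 Transplantable tumor-bearing mice; survival or tumor size recorded; result = T/C, treated vs vehicle control.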

[2] = system: BDF1 mice, L1210 leukemia sc; assay: as above; settings: T/C endpoint: median survival time, vehicle: water, higher T/C = longer survival
How it was run: as §1

[3] = dose: 300.0 mg/kg/injection, schedule: Q01DX001 (sc), evaluated on day 7
[4] = dose: 300.0 mg/kg/injection, schedule: Q01DX001 (sc), evaluated on day 40
[5] = dose: 300.0 mg/kg/injection, schedule: Q04DX003 (sc), evaluated on day 7
[6] = dose: 500.0 mg/kg/injection, schedule: Q04DX003 (sc), evaluated on day 7
[7] = dose: 500.0 mg/kg/injection, schedule: Q04DX003 (sc), evaluated on day 40

What does the source list for `O=P1(NCCCl)OCCCN1CCCl` (centres undefined)?
T/C ([1]; dose: 65.0 mg/kg/injection, schedule: Q04DX003 (sc), evaluated on day 7): 152, 186, 214 % of control; T/C ([1]; dose: 65.0 mg/kg/injection, schedule: Q04DX003 (sc), evaluated on day 40): 155, 157, 177 % of control; T/C ([1]; dose: 65.0 mg/kg/injection, schedule: Q04DX003 (sc), evaluated on day 50): 211 % of control; T/C ([1]; dose: 108.0 mg/kg/injection, schedule: Q04DX003 (sc), evaluated on day 7): 201, 236, 248 % of control; T/C ([1]; dose: 108.0 mg/kg/injection, schedule: Q04DX003 (sc), evaluated on day 40): 200 (2×) and 244 % of control; T/C ([1]; dose: 108.0 mg/kg/injection, schedule: Q04DX003 (sc), evaluated on day 50): 233 % of control; T/C ([1]; dose: 180.0 mg/kg/injection, schedule: Q01DX001 (sc), evaluated on day 7): 120 % of control; T/C ([1]; dose: 180.0 mg/kg/injection, schedule: Q01DX001 (sc), evaluated on day 33): 188 % of control; T/C ([1]; dose: 180.0 mg/kg/injection, schedule: Q01DX001 (sc), evaluated on day 40): 116 and 163 % of control; T/C ([1]; dose: 180.0 mg/kg/injection, schedule: Q04DX003 (sc), evaluated on day 7): 222, 234, 278 % of control; T/C ([1]; dose: 180.0 mg/kg/injection, schedule: Q04DX003 (sc), evaluated on day 40): 233, 268, 277 % of control; T/C ([1]; dose: 180.0 mg/kg/injection, schedule: Q04DX003 (sc), evaluated on day 50): 200 % of control; T/C [1, 3]: 215 % of control; T/C ([1]; dose: 300.0 mg/kg/injection, schedule: Q01DX001 (sc), evaluated on day 33): 222 % of control; T/C [1, 4]: 200 % of control [7 of 8 alive]; T/C [1, 5]: 201 and 296 % of control; T/C ([1]; dose: 300.0 mg/kg/injection, schedule: Q04DX003 (sc), evaluated on day 40): 200, 288, 310 % of control; T/C ([1]; dose: 300.0 mg/kg/injection, schedule: Q04DX003 (sc), evaluated on day 50): 122 % of control; survivor count ([1]; dose: 500.0 mg/kg/injection, schedule: Q01DX001 (ip)): 3 of 8; T/C ([1]; dose: 500.0 mg/kg/injection, schedule: Q01DX001 (sc), evaluated on day 7): 164, 226, 265 % of control; T/C ([1]; dose: 500.0 mg/kg/injection, schedule: Q01DX001 (sc), evaluated on day 33): 277 % of control; T/C ([1]; dose: 500.0 mg/kg/injection, schedule: Q01DX001 (sc), evaluated on day 40): 166, 221, 230 % of control [6 of 8 alive]; T/C ([1]; dose: 500.0 mg/kg/injection, schedule: Q01DX001 (sc), evaluated on day 55): 611 % of control [7 of 8 alive]; T/C [1, 6]: 97 and 164 % of control; T/C [1, 7]: 161 % of control; survivor count ([1]; dose: 500.0 mg/kg/injection, schedule: Q04DX003 (sc)): 4 of 8; survivor count ([1]; dose: 600.0 mg/kg/injection, schedule: Q01DX001 (sc)): 3 of 8; survivor count ([1]; dose: 625.0 mg/kg/injection, schedule: Q01DX001 (sc)): 5 of 8; survivor count ([1]; dose: 833.0 mg/kg/injection, schedule: Q01DX001 (ip)): 1 of 8; T/C ([1]; dose: 833.0 mg/kg/injection, schedule: Q01DX001 (sc), evaluated on day 7): 95 and 179 % of control; T/C ([1]; dose: 833.0 mg/kg/injection, schedule: Q01DX001 (sc), evaluated on day 40): 110 [6 of 8 alive] and 177 % of control [7 of 8 alive]; survivor count ([1]; dose: 833.0 mg/kg/injection, schedule: Q01DX001 (sc)): 4 of 8; survivor count ([1]; dose: 833.0 mg/kg/injection, schedule: Q08DX002 (sc)): 5 of 8; survivor count ([1]; dose: 1000.0 mg/kg/injection, schedule: Q01DX001 (ip)): 0 of 8; survivor count ([1]; dose: 1000.0 mg/kg/injection, schedule: Q01DX001 (sc)): 0 of 8 and 1 of 8; T/C ([2]; dose: 23.0 mg/kg/injection, schedule: Q01DX009 (sc)): 136 % of control; T/C ([2]; dose: 39.0 mg/kg/injection, schedule: Q04DX003 (sc)): 126 % of control; T/C ([2]; dose: 65.0 mg/kg/injection, schedule: Q08DX002 (sc)): 131 % of control; T/C ([2]; dose: 65.0 mg/kg/injection, schedule: Q09DX003 (sc), evaluated on day 7): 144 % of control; T/C ([2]; dose: 65.0 mg/kg/injection, schedule: Q09DX003 (sc), evaluated on day 50): 144 % of control; T/C ([2]; dose: 108.0 mg/kg/injection, schedule: Q01DX001 (sc)): 142 % of control; T/C ([2]; dose: 180.0 mg/kg/injection, schedule: Q01DX009 (sc)): 136 % of control; T/C [2, 3]: 140 % of control; T/C [2, 4]: 138 % of control; T/C [2, 5]: 126 % of control; T/C [2, 6]: 128 % of control; T/C [2, 7]: 126 and 127 % of control; T/C ([2]; dose: 500.0 mg/kg/injection, schedule: Q07DX003 (ip), evaluated on day 7): 143 % of control; T/C ([2]; dose: 500.0 mg/kg/injection, schedule: Q07DX003 (ip), evaluated on day 60): 131 % of control [7 of 8 alive]
